The list does not hold the whole screen: it is rich in T/C values a quarter to a half above the control, in often repeated tests (any T/C) and in doses without a T/C. Other doses and runs of a compound stand elsewhere. T/C gives the treated animals as a percentage of the vehicle group. Some entries give survivors of the animals treated and no T/C: the source files T/C as zero there, which appears to mark a toxic dose or a test without result, not a measured value. Some doses without a T/C left all or most animals alive at the check, yet need not have been tolerated: the source hardly ever lists a survival T/C far under the control, and the zero likely stands for such cases as well. For some assays here: Survivors were counted at the toxicity check, usually on the fifth day, unless a day is given; later deaths do not show. Schedules are NCI's codes, taken here to give the interval after Q, in days (D) or hours (H), and the number of doses after X. Some schedules carry Z or #; the key to these is not given. For some assays here: For survival time, this PubChem deposit counts one and a half times the control or more as active, and values a quarter to a half above the control carry no call in these data; other NCI protocols may use other cut-offs. Some entries hold several experiments; their values stand side by side, smallest first. Some T/C values carry the count of animals alive at the toxicity check (mostly the fifth day); where none is given, no animal had died by that day.
Columns and labels:
[1] = test system: BDF1 mice, L1210 leukemia sc; assay: NCI In Vivo Anticancer Drug Screen. Data for tumor model L1210 Leukemia (subcutaneous) in B6D2F1 (BDF1) mice; conditions: higher T/C = longer survival
In short: (§1)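 Tumors were transplanted into mice, the animals were treated with compound, survival or tumor size was then measured, and treated values were divided by vehicle-control values.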

[2] = test system: BDF1 mice, L1210 leukemia sc, survival T/C; assay: as above; conditions: higher T/C = longer survival
In short: as §1

[3] = T/C endpoint: median survival time, dose: 2.8 mg/kg/injection, schedule: Q01DX Z (sc), vehicle: saline
[4] = T/C endpoint: median survival time, dose: 4.7 mg/kg/injection, schedule: Q01DX Z (sc), vehicle: saline
[5] = T/C endpoint: median survival time, dose: 8.4 mg/kg/injection, schedule: Q01DX Z (sc), vehicle: saline
[6] = T/C endpoint: median survival time, dose: 13.0 mg/kg/injection, schedule: Q01DX Z (sc), vehicle: saline
[7] = T/C endpoint: median survival time, dose: 14.0 mg/kg/injection, schedule: Q01DX Z (sc), vehicle: saline
[8] = T/C endpoint: median survival time, dose: 22.0 mg/kg/injection, schedule: Q01DX Z (sc), vehicle: saline
[9] = T/C endpoint: median survival time, dose: 23.0 mg/kg/injection, schedule: Q01DX Z (sc), vehicle: saline

Nc1ncn(C2OC(CO)C(O)C2O)c(=O)n1 (configuration not stated)
T/C ([1]; T/C endpoint: median survival time, dose: 2.0 mg/kg/injection, schedule: Q03HX024 (sc), vehicle: saline, evaluated on day 7): 138 % of control | T/C ([1]; T/C endpoint: median survival time, dose: 2.0 mg/kg/injection, schedule: Q03HX024 (sc), vehicle: saline, evaluated on day 26): 138 % of control | T/C ([1]; T/C endpoint: median survival time, dose: 3.0 mg/kg/injection, schedule: Q01DX009 (ip), vehicle: saline): 133 % of control | T/C ([1]; T/C endpoint: median survival time, dose: 3.0 mg/kg/injection, schedule: Q04DX003 (ip), vehicle: saline): 144 % of control | T/C ([1]; T/C endpoint: median survival time, dose: 4.0 mg/kg/injection, schedule: Q01DX009 (sc), vehicle: saline, evaluated on day 7): 140 % of control | T/C ([1]; T/C endpoint: median survival time, dose: 4.0 mg/kg/injection, schedule: Q01DX009 (sc), vehicle: saline, evaluated on day 19): 140 % of control | T/C ([1]; T/C endpoint: median survival time, dose: 4.0 mg/kg/injection, schedule: Q01DX009 (sc), vehicle: saline, evaluated on day 30): 144 % of control | T/C ([1]; T/C endpoint: median survival time, dose: 4.0 mg/kg/injection, schedule: Q05DX009 (sc), vehicle: saline, evaluated on day 7): 134 % of control | T/C ([1]; T/C endpoint: median survival time, dose: 4.0 mg/kg/injection, schedule: Q05DX009 (sc), vehicle: saline, evaluated on day 23): 133 % of control | T/C ([1]; T/C endpoint: median survival time, dose: 6.0 mg/kg/injection, schedule: Q01DX001 (ip), vehicle: saline): 133 % of control | T/C ([1]; T/C endpoint: median survival time, dose: 6.0 mg/kg/injection, schedule: Q01DX001 (sc), vehicle: saline): 133 % of control | T/C ([1]; T/C endpoint: median survival time, dose: 8.0 mg/kg/injection, schedule: Q01DX009 (sc), vehicle: saline, evaluated on day 7): 133 % of control | T/C ([1]; T/C endpoint: median survival time, dose: 8.0 mg/kg/injection, schedule: Q01DX009 (sc), vehicle: saline, evaluated on day 30): 133 % of control | T/C ([1]; T/C endpoint: median survival time, dose: 8.0 mg/kg/injection, schedule: Q05DX009 (sc), vehicle: saline, evaluated on day 7): 133 % of control | T/C ([1]; T/C endpoint: median survival time, dose: 8.0 mg/kg/injection, schedule: Q05DX009 (sc), vehicle: saline, evaluated on day 23): 133 % of control | T/C ([1]; T/C endpoint: median survival time, dose: 12.0 mg/kg/injection, schedule: Q01DX001 (ip), vehicle: saline): 144 % of control | T/C ([1]; T/C endpoint: median survival time, dose: 24.0 mg/kg/injection, schedule: Q04DX003 (ip), vehicle: saline): 138 % of control | T/C ([1]; T/C endpoint: median survival time, dose: 32.0 mg/kg/injection, schedule: Q01DX001 (sc), vehicle: saline): 130 % of control | T/C ([1]; T/C endpoint: median survival time, dose: 32.0 mg/kg/injection, schedule: Q04DX003 (sc), vehicle: saline): 130 % of control | T/C ([1]; T/C endpoint: median survival time, dose: 64.0 mg/kg/injection, schedule: Q01DX001 (sc), vehicle: saline): 125 % of control | survivor count ([2]; T/C endpoint: median survival time, dose: 12.0 mg/kg/injection, schedule: Q01DX009 (ip), vehicle: saline): 7 of 8 | survivor count ([2]; T/C endpoint: median survival time, dose: 12.0 mg/kg/injection, schedule: Q01DX009 (sc), vehicle: saline): 8 of 8 | survivor count ([2]; T/C endpoint: median survival time, dose: 96.0 mg/kg/injection, schedule: Q01DX001 (ip), vehicle: saline): 4 of 8 | survivor count ([2]; T/C endpoint: median survival time, dose: 96.0 mg/kg/injection, schedule: Q01DX001 (sc), vehicle: saline): 4 of 8

C=CC(O)CN1CC1 (configuration not stated)
T/C ([1]; T/C endpoint: median survival time, dose: 1.08 mg/kg/injection, schedule: Q01DX Z (sc), vehicle: saline): 125 % of control [8 of 10 alive] | T/C [1, 3]: 140 % of control | T/C ([1]; T/C endpoint: median survival time, dose: 3.0 mg/kg/injection, schedule: Q01DX Z (sc), vehicle: saline): 140 % of control | T/C [1, 4]: 144 % of control | T/C [1, 5]: 145 % of control | T/C ([1]; T/C endpoint: median survival time, dose: 8.4 mg/kg/injection, schedule: Q02DX Z (sc), vehicle: saline): 136 % of control | T/C [1, 6]: 133 and 145 % of control | T/C [1, 7]: 136 % of control | T/C [1, 8]: 133 % of control [9 of 10 alive] | T/C ([1]; T/C endpoint: median survival time, dose: 23.0 mg/kg/injection, schedule: Q01DX001 (sc), vehicle: saline): 127 % of control | T/C [1, 9]: 127 % of control | T/C ([1]; T/C endpoint: median survival time, dose: 39.0 mg/kg/injection, schedule: Q01DX001 (sc), vehicle: saline): 131 % of control | T/C ([1]; T/C endpoint: median survival time, dose: 39.0 mg/kg/injection, schedule: Q02DX Z (sc), vehicle: saline): 127 % of control | survivor count ([2]; T/C endpoint: median survival time, dose: 1.7 mg/kg/injection, schedule: Q01DX Z (sc), vehicle: saline): 2 of 10 | survivor count ([2]; T/C endpoint: median survival time, dose: 1.8 mg/kg/injection, schedule: Q01DX Z (sc), vehicle: saline): 6 of 10 | survivor count [2, 3]: 3 of 10 | survivor count [2, 4]: 3 of 10 | survivor count ([2]; T/C endpoint: median survival time, dose: 7.8 mg/kg/injection, schedule: Q01DX Z (sc), vehicle: saline): 7 of 10 | survivor count [2, 5]: 6 of 10 | survivor count [2, 6]: 7 of 10 | survivor count [2, 7]: 5 of 10 | survivor count [2, 8]: 7 of 10 | survivor count [2, 9]: 3 of 10 | survivor count ([2]; T/C endpoint: median survival time, dose: 36.0 mg/kg/injection, schedule: Q01DX Z (sc), vehicle: saline): 5 of 10 | survivor count ([2]; T/C endpoint: median survival time, dose: 39.0 mg/kg/injection, schedule: Q01DX Z (sc), vehicle: saline): 5 of 10 | survivor count ([2]; T/C endpoint: median survival time, dose: 60.0 mg/kg/injection, schedule: Q01DX Z (sc), vehicle: saline): 0 of 10 | survivor count ([2]; T/C endpoint: median survival time, dose: 108.0 mg/kg/injection, schedule: Q01DX001 (sc), vehicle: saline): 2 of 8 | survivor count ([2]; T/C endpoint: median survival time, dose: 108.0 mg/kg/injection, schedule: Q## X Z (sc), vehicle: saline): 1 of 8 | survivor count ([2]; T/C endpoint: median survival time, dose: 180.0 mg/kg/injection, schedule: Q01DX001 (sc), vehicle: saline): 0 of 8 | survivor count ([2]; T/C endpoint: median survival time, dose: 300.0 mg/kg/injection, schedule: Q01DX001 (sc), vehicle: saline): 0 of 8

COc1cc(NS(C)(=O)=O)ccc1Nc1c2ccc([N+](=O)[O-])cc2nc2c(C)cccc12
T/C ([1]; T/C endpoint: mean survival time, dose: 2.5 mg/kg/injection, schedule: Q01DX009 (ip), vehicle: saline): 125 % of control | T/C ([1]; T/C endpoint: mean survival time, dose: 5.0 mg/kg/injection, schedule: Q01DX009 (ip), vehicle: saline): 128 % of control | survivor count ([2]; T/C endpoint: mean survival time, dose: 10.0 mg/kg/injection, schedule: Q01DX009 (ip), vehicle: saline): 10 of 10 | survivor count ([2]; T/C endpoint: mean survival time, dose: 20.0 mg/kg/injection, schedule: Q01DX009 (ip), vehicle: saline): 8 of 10

CS(=O)(=O)Nc1ccc(Nc2c3ccccc3nc3cc([N+](=O)[O-])ccc23)cc1
T/C ([1]; T/C endpoint: mean survival time, dose: 10.0 mg/kg/injection, schedule: Q01DX009 (sc), vehicle: Klucel (hydroxypropylcellulose) (HPC)): 140 % of control | survivor count ([2]; T/C endpoint: mean survival time, dose: 10.0 mg/kg/injection, schedule: Q01DX009 (ip), vehicle: Klucel (hydroxypropylcellulose) (HPC)): 9 of 10

CN(O)C(N)=O
T/C ([1]; T/C endpoint: median survival time, dose: 78.0 mg/kg/injection, schedule: Q01DX Z (sc), vehicle: saline): 138 % of control [7 of 8 alive] | survivor count ([2]; T/C endpoint: median survival time, dose: 130.0 mg/kg/injection, schedule: Q01DX Z (sc), vehicle: saline): 4 of 8 | survivor count ([2]; T/C endpoint: median survival time, dose: 216.0 mg/kg/injection, schedule: Q01DX Z (sc), vehicle: saline): 4 of 8 | survivor count ([2]; T/C endpoint: median survival time, dose: 600.0 mg/kg/injection, schedule: Q01DX Z (sc), vehicle: saline): 4 of 8

Nc1ccc(O)cc1
T/C ([1]; T/C endpoint: median survival time, dose: 360.0 mg/kg/injection, schedule: Q01DX Z (sc), vehicle: other): 133 % of control | survivor count ([2]; T/C endpoint: median survival time, dose: 65.0 mg/kg/injection, schedule: Q01DX Z (sc), vehicle: methylcellulose (MC)): 5 of 10 | survivor count ([2]; T/C endpoint: median survival time, dose: 108.0 mg/kg/injection, schedule: Q01DX Z (sc), vehicle: methylcellulose (MC)): 4 of 10 | survivor count ([2]; T/C endpoint: median survival time, dose: 180.0 mg/kg/injection, schedule: Q01DX Z (sc), vehicle: methylcellulose (MC)): 4 of 10 | survivor count ([2]; T/C endpoint: median survival time, dose: 1000.0 mg/kg/injection, schedule: Q01DX Z (sc), vehicle: other): 0 of 10

Nc1n[nH]c(N)n1
T/C ([1]; T/C endpoint: median survival time, dose: 300.0 mg/kg/injection, schedule: Q03HX024 (ip), vehicle: water): 133 % of control | T/C ([1]; T/C endpoint: median survival time, dose: 300.0 mg/kg/injection, schedule: Q03HX024 (sc), vehicle: water): 133 % of control | T/C ([1]; T/C endpoint: median survival time, dose: 500.0 mg/kg/injection, schedule: Q03HX024 (sc), vehicle: none): 140 % of control | T/C ([1]; T/C endpoint: median survival time, dose: 500.0 mg/kg/injection, schedule: Q08DX009 (sc), vehicle: none): 130 % of control | T/C ([1]; T/C endpoint: median survival time, dose: 833.0 mg/kg/injection, schedule: Q03HX024 (sc), vehicle: water): 127 % of control [6 of 8 alive] | T/C ([1]; T/C endpoint: median survival time, dose: 1200.0 mg/kg/injection, schedule: Q01DX Z (sc), vehicle: water): 127 % of control | T/C ([1]; T/C endpoint: median survival time, dose: 2000.0 mg/kg/injection, schedule: Q08DX009 (sc), vehicle: none): 135 % of control | survivor count ([2]; T/C endpoint: median survival time, dose: 833.0 mg/kg/injection, schedule: Q03HX024 (ip), vehicle: water): 4 of 8

Reference: PubChem BioAssay AID250 (DTP/NCI, 2004)
